PubChem BioAssay AID686943 | Drosophila RNAi Screening Center – 2013

Assay: 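Fly genes whose loss alters ERK activation after insulin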 (primary screen)
Cell system: Drosophila S2R+ haemocyte-like cells expressing YFP-tagged ERK (Rolled)
Knock-down reagent: long dsRNA against Drosophila genes
Challenge: insulin stimulation versus unstimulated cells; dose and duration not given
Detection: 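Per-plate z-scores of phospho-ERK immunostaining normalised to YFP-tagged ERK, measured with and without insulin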
Direction: replicate 1, z-score of dpERK with insulin: higher = more active ERK per ERK-YFP after insulin
The deposit covers about 23,000 reagents; this is a random part of those that have a named target and a result. 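Extra replicates exist only for a retested subset of genes; insulin dose and duration not given; both raised and lowered dpERK matter.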 Names joined by + are all predicted targets of the reagent. Further read-outs or replicates are left out here. Not given: the amount of reagent, the time to read-out.

Which result is listed for Det (GeneID 42077) [DRSC14489]?
replicate 1, z-score of dpERK with insulin: 0.29

What is on record for Pex19 (GeneID 34630) [DRSC02839]?
replicate 1, z-score of dpERK with insulin: 0.57

What is on record for CG34281 (GeneID 50039) [DRSC14807]?
replicate 1, z-score of dpERK with insulin: -0.47

With CG14627 (GeneID 31063) [DRSC18630], what was measured?
replicate 1, z-score of dpERK with insulin: -0.88

What is on record for CG18004 (GeneID 36154) [DRSC06705]?
replicate 1, z-score of dpERK with insulin: 0.56

With mthl13 (GeneID 246395) [DRSC05238], what does the deposit list?
replicate 1, z-score of dpERK with insulin: -0.25

For Nckx30C (GeneID 45248) [DRSC02686], what does the deposit list?
replicate 1, z-score of dpERK with insulin: 0.18

With Nckx30C (GeneID 45248) [DRSC02687], how do the results read?
replicate 1, z-score of dpERK with insulin: -0.36

What is on record for Nckx30C (GeneID 45248) [DRSC02688]?
replicate 1, z-score of dpERK with insulin: -1.45

With Nckx30C (GeneID 45248) [DRSC02689], what does the deposit list?
replicate 1, z-score of dpERK with insulin: -1.17

Which result is listed for CG7133 (GeneID 40449) [DRSC11798]?
replicate 1, z-score of dpERK with insulin: -0.08

Which result is listed for Adat1 (GeneID 34787) [DRSC03479]?
replicate 1, z-score of dpERK with insulin: -0.74

How did the screen score app (GeneID 39399) [DRSC09159]?
replicate 1, z-score of dpERK with insulin: -0.12

With app (GeneID 39399) [DRSC10246], what does the deposit list?
replicate 1, z-score of dpERK with insulin: 0.3

For app (GeneID 39399) [DRSC10526], what does the deposit list?
replicate 1, z-score of dpERK with insulin: -0.38

How did the screen score CR31292 (GeneID 10178952) [DRSC13120]?
replicate 1, z-score of dpERK with insulin: 0.42

How did the screen score yellow-d2 (GeneID 37704) [DRSC04591]?
replicate 1, z-score of dpERK with insulin: 0.18

For Dys + snoRNA:Me18S-A1374 [DRSC16232], what was measured?
replicate 1, z-score of dpERK with insulin: -0.37

For CG31200 (GeneID 326124) [DRSC15285], what does the deposit list?
replicate 1, z-score of dpERK with insulin: -0.22

For ms(2)34Fe (GeneID 34833) [DRSC01905], how do the results read?
replicate 1, z-score of dpERK with insulin: 0.38

For Ugt302K1 (GeneID 53502) [DRSC16086], what does the deposit list?
replicate 1, z-score of dpERK with insulin: 0.75

What is on record for CG14258 (GeneID 43260) [DRSC14753]?
replicate 1, z-score of dpERK with insulin: -0.7

For Gyc32E (GeneID 34553) [DRSC01154], how do the results read?
replicate 1, z-score of dpERK with insulin: 0.5

With Klp64D (GeneID 38611) [DRSC11204], what does the deposit list?
replicate 1, z-score of dpERK with insulin: 0.54

For CG34198 (GeneID 5740481) [DRSC05803], what was measured?
replicate 1, z-score of dpERK with insulin: 1.46

What is on record for Klp54D (GeneID 47216) [DRSC07450]?
replicate 1, z-score of dpERK with insulin: 0.2

What did the screen give for Picot (GeneID 36865) [DRSC07508]?
replicate 1, z-score of dpERK with insulin: 1.23

With CG13032 (GeneID 39863) [DRSC09912], how do the results read?
replicate 1, z-score of dpERK with insulin: 0.42

Which result is listed for dpr12 (GeneID 50320) [DRSC04814]?
replicate 1, z-score of dpERK with insulin: 1.44

With dpr12 (GeneID 50320) [DRSC04863], how do the results read?
replicate 1, z-score of dpERK with insulin: 0.58

For dpr12 (GeneID 50320) [DRSC04892], what does the deposit list?
replicate 1, z-score of dpERK with insulin: 1.36
